Among all 52,000 sequences or so, about 210 (0.4%) were called active.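 Rule for the calls: active = gene whose silencing raises cell survival under the drug, median off-target-corrected z-score across its silencing RNAs 2 or more; inactive = the rest.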 The list shows a part of the results.

In PubChem BioAssay AID1347423 (Functional Genomics Laboratory (NCATS/FGL), 2020) one finds z-score data, which are given here for 104 sequences.

The nature of this test: Resistance to Poly (ADP-Ribose) Polymerase inhibitor: Gene Identification via Genome-wide siRNA Screen. Conditions: mouse BRCA2 R2336H ES cells, olaparib, CellTiter-Glo viability; active compounds read high. Put shortly: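 Mouse BRCA2 R2336H ES cells were reverse-transfected with siRNA (20 nM final), treated at 48 h with 500 nM olaparib, and read by CellTiter-Glo after 72 h. Scores: MAD-based z per siRNA, median per gene, seed off-target correction.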
Turning to UGCCUGUAAACCAACAAGGTT against Prb1, the z-score is inactive: -0.944. For the sequence GCUUCUAUUUCAUCUUUGUTT against Krtap4-7, the z-score was inactive: -0.152. The value for GGACCAUUUUCAAUACUCUTT against Rps6kl1 was inactive: -0.172. For GCAUGUAUGGGCUGUUCAUTT against Olfr642, the z-score was inactive: -2.63. Turning to “GGGCAUCCUUCAACUUCAGTT against 4932417D18Rik”, the z-score is inactive: 0.632. With GGAGAUUGGCUUCCAGAAATT against BC031853, the z-score was inactive: -1.11.

Consider GCCAACCAUCAGUUUAUACTT against Oact1, for which the z-score was inactive: -0.379.

Consider GCUGACUGCCAAGGAUUUUTT against Ogn, for which the z-score is inactive: -0.0744.

In the case of GCUGAAUAGCCUCUAUCUATT against Rasgrp4, the z-score was inactive: 0.14. With GGAUCCAAUACCAGCUAGUTT against Sh3bgrl3, the z-score is inactive: -0.00984. The value for GCAAAUCCCUCUGAAUGAUTT against Aox3 was inactive: -0.358; that for “GCCCGCAUUCUUAUUCGAUTT against 9630015D15Rik” was inactive: 0.786. Turning to GCCCAUUCUAAACAAAUAATT against Ptcd1, the z-score was inactive: -0.471. Take GGGACUCUACCUUCAAUGUTT against Fkbp9: the z-score was inactive: 0.43. In the case of GGCGACGAGUUUGAUGACUTT against Cri1, the z-score was inactive: 0.4. For CGGCUCAUAGGAAUGAUUUTT against Brf1, the z-score was inactive: -2.6. As for “GCGUAGGUUACGUUCAAGGTT against 2410011O22Rik”, the z-score is inactive: 1.06. For the sequence “GCGCAAGGAAUACAUGGUGTT against D11Bwg0434e”, the z-score was inactive: -0.202. For GGAAGAAGAGGAUGAGAUUTT against Clcn6, the z-score was inactive: -2.32. On to CGAAUUUACAAAGAACUUGTT against LOC238829, for which the z-score is inactive: 1.59. As for GGGUACAUUCUGGAAAUUUTT against Ids, the figure is inactive: 0.0647; as for GGUCUUCUUCAAACAACUGTT against Hhip, inactive: -0.445. For the sequence GGAAGUGGACACAGAAAAATT against BC048937, the z-score is inactive: 0.172. Take GGCGGCUUUAGACAAGUAATT against Mrpl13: the z-score was inactive: -2.29. As for CGUGCUGUGCCUUCUGAGUTT against Gtf2e2, the figure is inactive: -0.416; as for UAGGAAUUGGCUUCUACCUTT against Tdpoz2, inactive: 0.437; as for GCUGAUGAGUGGCUAUCAGTT against Coro6, inactive: -1.48. As for “GGCCUUAUCGGCAGAUAUUTT against 9330161C17Rik”, the figure is inactive: -0.752; as for GGCCGAAUCACAGAAACUCTT against Mrps18a, inactive: 0.82; as for CCUACAUGGGCAUCAUUAGTT against Tfpi2, inactive: 0.422. Regarding CCACUUUAAGACUGACUGUTT against Tnfrsf25, the z-score was inactive: -0.523.

Take “GCUAGUAACAGCAAGCUUCTT against 4930441O14Rik”: the z-score is inactive: -0.138. For the sequence GCAUCAACUGUUAGUAAAGTT against Hrb, the z-score is inactive: -0.973. Regarding “GGAGAGGACUGUAAAGUGCTT against C130034I18Rik”, the z-score was inactive: 0.317. The value for CGCAUCUUAUCUUUCCUAATT against Ngly1 was inactive: 0.723. In the case of CCUAAAAAGAGGAAAAGGGTT against Psg29, the z-score is inactive: 0.664. Consider GGAAAGCCCUCCGAAGUUUTT against Wsb2, for which the z-score was inactive: -0.469. With GGCAAUUUCAGACAAGUAUTT against Tcfcp2l2, the z-score is inactive: -0.37. As for CCAGAAACUAGCCUACUACTT against Vgll2, the figure is inactive: 0.636; as for CGUGUGUUUUACCCUAAAATT against 6.72E+21, inactive: 1.3; as for GGAAUCCAACCUCUGUGAUTT against Cdca2, inactive: -1.08. GGUUCAAAGGUGAUGGUGUTT against Dab2: the z-score is inactive: 0.185.

For the sequence GGAAAUAAAACAGAUUUGGTT against Atpaf1, the z-score was inactive: 1.42. For the sequence GGUGAUCAUCCAUGAAUUCTT against Chaf1a, the z-score was inactive: -1.71. As for GCUCACUUGUAGUGCUUUATT against Arf2, the z-score is inactive: 0.000159. Turning to GAGUUGUACUCUUCACUAUTT against Olfr497, the z-score is inactive: 1.77. For GGAAUGUAAGAACCCUUGCTT against Adam19, the z-score was inactive: 0.854.

For GGGUAACAUCUUCAGAUUUTT against Gpr109b, the z-score is inactive: -0.494. Take GCAUCCUCUCACUCUCAAUTT against Grin2a: the z-score is inactive: 2.14. In the case of CCUGUCUUUCUUUGAUCAATT against Tm4sf3, the z-score was inactive: 0.417. With GGAUAUUCAUGUUUCAUUGTT against Vipr2, the z-score is inactive: -0.132. As to CGUGACAUGCACGACUUCUTT against Tac2, the z-score was inactive: -0.83. For the sequence “GCCCUUUUACGGCAACAGATT against 5730419I09Rik”, the z-score was inactive: -0.148.

As to GGCUGAUCUCUUUUGCCAGTT against Reg2, the z-score was inactive: 0.282. On to GGACAACAAACUUUUCCUGTT against Ppgb, for which the z-score was inactive: -0.277. As for CCAACUCGGCUGUUUUUUATT against F11r, the z-score is inactive: 0.274. Turning to GCCUAAAAAAUCUCUGUGATT against Zswim3, the z-score is inactive: -1.39.

Regarding GGGAGGGACUUUUAAACUUTT against Ube2n, the z-score is inactive: -1.28. As for GGAAACCUCAUCCAUUCCCTT against Ei24, the z-score is inactive: 1.01. For GGAACAAACGUGACUGUCATT against Rdh14, the z-score was inactive: -1.52. In the case of CGCUGGUGGUAUAACCAAGTT against Wfdc6, the z-score was inactive: -1.84. As to GGACAAGGCCCUCAUGAUUTT against Nek8, the z-score is inactive: -0.254. Regarding “CCAGGAAGAGAACUAUAAUTT against E130009J12Rik”, the z-score was inactive: 1.23. Turning to “GGCUAGAUUUCUGAUUCCCTT against F630022B06Rik”, the z-score is inactive: 1.2. On to GAAUUGUCUUACUUGGAAATT against Ian1, for which the z-score was inactive: 0.519. Regarding GGCUACCUUUGUUAAAUCUTT against Rab10, the z-score was inactive: 0.497. In the case of “GGAGUCGAAUCUUCUCUAATT against 2310066I18Rik”, the z-score was inactive: -0.107. Consider GGUGGUGAUAUCAAGAAUCTT against Sfxn3, for which the z-score was inactive: -0.425. In the case of CGGUAAAGUGAAUCAUAGATT against Tas2r105, the z-score is inactive: 0.51. As for GCUUGACGCGAACUUACCATT against Endog, the z-score is inactive: 0.821. In the case of CCCUUCUCACUAACAUACATT against Dach1, the z-score was inactive: 0.397. Consider GGCAAGAUGAAUUAAAAUGTT against AW146020, for which the z-score is inactive: 2.03.

Consider GGAAAUGCUGCCAUUGUUATT against Aldh3a2, for which the z-score was inactive: -0.998.

Regarding GGGUGAUCUGUAGUAUUUUTT against Olfr574, the z-score was inactive: -0.987. Turning to CGUGUGGAGUAAACACCAATT against Herc3, the z-score was inactive: 0.183. With CCCAGUGAUUAAGGCUUUCTT against BC010801, the z-score was inactive: -1.38. As to “CCCUAUCAUCAGUUUCCGGTT against B230363K08Rik”, the z-score is inactive: -1.19. As for CGAUGUCAUGCUCAGCGCATT against Nlgn2, the figure is inactive: 0.611. Take GGAGCUUGAAGCAUCCUAGTT against Bdkrb2: the z-score is inactive: 2.25. On to GGUACGGUUAAUAGCCACGTT against Snai2, for which the z-score was inactive: 1.05. Take GCAUUACCAAAAGCAGUCUTT against Lyn: the z-score is inactive: -0.0659. Consider GCGGUUGAUGUCCUGUGUUTT against Adra1b, for which the z-score was inactive: 0.499. As for GCAAACUAUUUGUCUGGUGTT against Ripk1, the figure is inactive: -0.277; as for GGCUAUUGUAUGAAAUUGUTT against BC050092, inactive: 0.435; as for GGUGACCUGUAAAUGCAACTT against Fln29, inactive: 0.634. As to GCCAUGUUAACUGCCUCAATT against Bmyc, the z-score was inactive: 0.0127. For GGUAAAAGGUGCCUUGAGATT against Olfr446, the z-score was inactive: 0.807. Regarding GGAGAAAAGGACUGAAGGCTT against Ralbp1, the z-score was inactive: -0.101.

On to “GCUCCAACGUAAGUGGGAATT against 1700123L14Rik”, for which the z-score is inactive: -0.0343. For “GGACAAUCCAUAAGUUAAATT against A930041I02Rik”, the z-score was inactive: -0.369. Take “CCCAUACAGUGUGGUAUUUTT against 5730472N09Rik”: the z-score is inactive: -0.508. As for GCGACAGUCCAACUUUUAATT against Allc, the z-score was inactive: 0.941. The value for “GCACUCGGAUCAAUGCACATT against G630055P03Rik” was inactive: -0.63; that for GGGUUAAGUACAGAAGAUCTT against Cask was inactive: -1.62.

On to GCACAAUUAUGAGAGUGCATT against Grin1, for which the z-score is inactive: -0.652. Consider GGUUUUGGAGAGAAUUGCCTT against Cog2, for which the z-score was inactive: -2.06.

As for GGCCCACAGUUUGUGACUGTT against D3Wsu161e, the z-score is inactive: -0.826.

UCUCCUUCAUUCCAUGUAUTT against Olfr441: the z-score was inactive: -1.04. Turning to “GGCACAGAAAACAGUCAAATT against 1190005F20Rik”, the z-score is inactive: -0.572. The value for GGACUUAUCGGUUAUCUUUTT against Nap1l2 was inactive: 0.654; that for “CCAGUUGUGUGCAGUACAGTT against 1700019G17Rik” was inactive: 0.232. As to CCUGUUCUCUCACCAUCAUTT against Olfr1026, the z-score was inactive: -1.6. GGGCACCACAGAAAGGAAUTT against Olfr376: the z-score was inactive: -0.844. Take GCUGUUGUGUGAGGUAACCTT against Lag3: the z-score was inactive: -0.206.
